Measurements taken from paper PMC10763551.
These are yes or no findings as the source states them, for the method shown.

Molecular target: Wild-type lmSrtA (Listeria monocytogenes sortase A, residues 71-222) (Listeria monocytogenes) (UniProt Q8Y8H5)
Assay: SEC; analytical SEC of the purified enzymes; conditions not given; both purified

B1: Wild-type lmSrtA (Listeria monocytogenes sortase A, residues 71-222) (enzyme, UniProt Q8Y8H5 71-222)
chain: GAANYDKDAVVGSIAVPSVDVNLLVFKGTNTANLLAGATTMRSDQVMGKGNYPLAGHHMRDESMLFGPIMKVKKGDKIYLTDLENLYEYTVTETKTIDETEVSVIDNTKDARITLITCDKPTETTKRFVAVGELEKTEKLTKELENKYFPSK
With B1 the binding was “no binding”.
